Results: PMC7819943, “Rice protein-binding microarrays: a tool to detect cis-acting elements near promoter regions in rice”
The list shows a part of the results.

biological target: T1, OsSMF1 (Oryza sativa, UniProt Q6ZLB0 1-436); assay: protein-binding microarray (RPBM); PBS, 2% BSA, 51.3 ng/ul salmon testes DNA, 50 uM zinc acetate, 200 nM TF, 25 C, 1 h; high values mean tight binding; details: protein: recombinant; tags: N-terminal polyhistidine and DsRed monomer fusion (pET32a); chain copies: 2; label: CyDye5-dUTP incorporated in the synthesized complementary strand; 3' TTTTT single-stranded linker to array surface; dsDNA, one strand shown
T1 sequence: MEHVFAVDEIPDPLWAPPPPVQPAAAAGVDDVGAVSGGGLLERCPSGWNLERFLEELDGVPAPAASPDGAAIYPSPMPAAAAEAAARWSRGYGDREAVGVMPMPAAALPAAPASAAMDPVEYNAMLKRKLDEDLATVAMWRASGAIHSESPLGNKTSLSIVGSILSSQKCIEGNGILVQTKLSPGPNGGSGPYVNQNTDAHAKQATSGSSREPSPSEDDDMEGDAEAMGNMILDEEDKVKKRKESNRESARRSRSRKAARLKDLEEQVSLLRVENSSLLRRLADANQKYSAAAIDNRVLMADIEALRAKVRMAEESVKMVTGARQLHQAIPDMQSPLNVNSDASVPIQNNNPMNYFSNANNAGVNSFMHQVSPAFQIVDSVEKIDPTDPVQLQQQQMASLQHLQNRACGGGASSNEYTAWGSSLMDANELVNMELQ
Summary of the method: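 Per-feature fluorescence intensity (arbitrary units), read on an Axon 4000B scanner, is the binding signal. Transcription factors carrying an N-terminal polyhistidine tag and DsRed fusion were expressed in E. coli BL21-CodonPlus and purified on Ni–NTA. A custom Agilent array, made double-stranded by primer extension with Cy5-dUTP and blocked with 2% BSA, was incubated with 200 nM protein in PBS, 2% BSA, salmon testes DNA and 50 µM zinc acetate at 25 °C for 1 h and then washed.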

Sequence	binding signal
TGCTTCATCGCGGCCAACGCCACCGCCGTCCACCGTCATCCGGAGTCACCTAGTGCAG	3260 fluorescence intensity (a.u.)
TAACGAACACGTGGCCAGATACCCTGACAAAATTCACCAGCGGAGTCACCTAGTGCAG	8190 fluorescence intensity (a.u.)
TTGTTGAAATTGGACTTGGGAGCCACGAGTCCACGTGACACGGAGTCACCTAGTGCAG	3560 fluorescence intensity (a.u.)
CTGATTAATTGACCCACCGACTAAACTTGCACAGTCACCACGGAGTCACCTAGTGCAG	7530 fluorescence intensity (a.u.)
AATCCCAGTGCGTGCCTCCGCCTCCACCTCCACCTCGTCACGGAGTCACCTAGTGCAG	22000 fluorescence intensity (a.u.)
CTATTTTGAATTACAAGCCACGCATAGAATTTGCATTTTGCGGAGTCACCTAGTGCAG	4350 fluorescence intensity (a.u.)
TGCCGTGCCGGCCGCGCGCTCGCCACATAAGCACATACGGCGGAGTCACCTAGTGCAG	4840 fluorescence intensity (a.u.)
TTAGAAACTTTCTCTAGATCACCCTTCTATTAGTGAGACACGGAGTCACCTAGTGCAG	3200 fluorescence intensity (a.u.)
ACTTGAGGATGTGAAGATGATTGGTTAGGTACAGTGTTTGCGGAGTCACCTAGTGCAG	24800 fluorescence intensity (a.u.)
GATTTGCTTACATGAATAAGGTTGATTTGCATCGGCAAGACGGAGTCACCTAGTGCAG	4000 fluorescence intensity (a.u.)
ACTATATCATTTGCACTGTGCTTGCGTTGTACGTATGCCACGGAGTCACCTAGTGCAG	3510 fluorescence intensity (a.u.)
TGGCCTCCTCCGCCGTCCACGTGAGGCAGGCAGGGCTAACCGGAGTCACCTAGTGCAG	4120 fluorescence intensity (a.u.)
TACTTGGAACGATTTGCTACCAGCGAATCGCGTGGCAATCCGGAGTCACCTAGTGCAG	3480 fluorescence intensity (a.u.)
ACCACCACCACCACCGTCACCCAACTATTCTATTCTGAATCGGAGTCACCTAGTGCAG	3330 fluorescence intensity (a.u.)
AAAAGAACACTGCCCAAAGGCCCAGATAACTAGACATCCCCGGAGTCACCTAGTGCAG	5010 fluorescence intensity (a.u.)
CGATCGATCGATTGTGAGCACCGAACTCCCTTAATTAGGACGGAGTCACCTAGTGCAG	3390 fluorescence intensity (a.u.)
AGCACAGACACAAACACAACCCTCTCTTACGTCAGAGCACCGGAGTCACCTAGTGCAG	9570 fluorescence intensity (a.u.)
ACGGGAAGGGGAAAAGAAGGAATGAGAAGGGGTAATCTAGCGGAGTCACCTAGTGCAG	21400 fluorescence intensity (a.u.)
TGTAGAGGTTGGTGGGTGGGTCGATTGGCTTAGCGAGAGGCGGAGTCACCTAGTGCAG	3510 fluorescence intensity (a.u.)
CCACGAACGAGTTGTTGCGCCACGTCGATGTGCGATTAGACGGAGTCACCTAGTGCAG	11500 fluorescence intensity (a.u.)
TCCCCACCCTCCTCCGCAAGCCACGCCTCTCCCCAAAGTTCGGAGTCACCTAGTGCAG	65500 fluorescence intensity (a.u.)

Sequence	binding signal
CCCCTCCCCATCGTCAGCATCTTTCTTTCTCTTCCCATCCCGGAGTCACCTAGTGCAG	6610 fluorescence intensity (a.u.)
GTCGCCACATGACACCATGCGAGACTGTCCACGTCATCATCGGAGTCACCTAGTGCAG	24200 fluorescence intensity (a.u.)
TAATAACTTATACTGATATTGATTACTCCCTCCATCCCTACGGAGTCACCTAGTGCAG	3370 fluorescence intensity (a.u.)
CACGTCCTCCTCCTCCCGTCACGCTCGCGCAGCTGCTGCTCGGAGTCACCTAGTGCAG	3360 fluorescence intensity (a.u.)
TATGTACATGTGGCATAGTATGTCATATATATTGACTATGCGGAGTCACCTAGTGCAG	4460 fluorescence intensity (a.u.)
GAGAGCCCAACGAACGTGACGCGACTTGTGAGGCCCAAACCGGAGTCACCTAGTGCAG	6460 fluorescence intensity (a.u.)
GCCGCCACCGCCACCGCCACCGCCACGTCCAGCCTCCGGTCGGAGTCACCTAGTGCAG	6740 fluorescence intensity (a.u.)
ACGCCGTTGTCCACTACCTCTGTGTCATCCCCAATGCGCCCGGAGTCACCTAGTGCAG	5340 fluorescence intensity (a.u.)
GAAGAGAACGCCACATAGACGTGGCACGCTGACATGTGGGCGGAGTCACCTAGTGCAG	8060 fluorescence intensity (a.u.)
TCCGTCCCAAAATATAAGAAGTTTTAGAATTGGATACCGTCGGAGTCACCTAGTGCAG	30600 fluorescence intensity (a.u.)
AAATAGTAGAAAACGATGCTGAATTGCTGATGTGTTTGTCCGGAGTCACCTAGTGCAG	5930 fluorescence intensity (a.u.)
AATCCCTGAACCCGACCCGGACCCAAACAAGGCTACAAACCGGAGTCACCTAGTGCAG	3310 fluorescence intensity (a.u.)
TTTCCCTTATAGGTTCATTTAGATTTAAAAGATAAGATTTCGGAGTCACCTAGTGCAG	19400 fluorescence intensity (a.u.)
TTGTCGTCCAATTGGGAGAGTACTGAGTACGTGTACTTCGCGGAGTCACCTAGTGCAG	6550 fluorescence intensity (a.u.)
ATCATCCCAAAATCATCGTCAAGTCGTCGCCTCCGGATTGCGGAGTCACCTAGTGCAG	3280 fluorescence intensity (a.u.)
CTCATCCGAGCCGTTCATGACGTGGGCCCCGCAAAAGAAGCGGAGTCACCTAGTGCAG	3480 fluorescence intensity (a.u.)
ATCCGCATTAACATATTTAATCACACGTGTTATCTCAAACCGGAGTCACCTAGTGCAG	9920 fluorescence intensity (a.u.)
CCCACCTCGCGCGGCACATGCGCGACGTGTTCGCCATTGGCGGAGTCACCTAGTGCAG	3550 fluorescence intensity (a.u.)
TGATAATGTGATATCTGGAATAGTGTAGATGATGGTATAGCGGAGTCACCTAGTGCAG	27600 fluorescence intensity (a.u.)
CTCGTTTTCTCCCAAAATCCGCGAGGTTTTGTTTTGTAGGCGGAGTCACCTAGTGCAG	15600 fluorescence intensity (a.u.)
TCCTGCCCAAACAGCATACTGATTGTTGAGGTAGGTAAACCGGAGTCACCTAGTGCAG	7160 fluorescence intensity (a.u.)

Individual results from the entries so far.
Entry for CTCATCCGAGCCGTTCATGACGTGGGCCCCGCAAAAGAAGCGGAGTCACCTAGTGCAG under binding signal: 3480 fluorescence intensity (a.u.)
Entry for GAGAGCCCAACGAACGTGACGCGACTTGTGAGGCCCAAACCGGAGTCACCTAGTGCAG under binding signal: 6460 fluorescence intensity (a.u.)
Entry for GAAGAGAACGCCACATAGACGTGGCACGCTGACATGTGGGCGGAGTCACCTAGTGCAG under binding signal: 8060 fluorescence intensity (a.u.)
